Results published in ChEMBL document CHEMBL1782003, “Development and SAR of functionally selective allosteric modulators of GABAA receptors” (Bioorg Med Chem, 2011).
Values after ≈ are worked out from the molar mass of the structure shown.

Experiment: physchem

Row | Compound | solubility
1 | COc1ccc(OC)c(-c2cccc3c(N)c(C(=O)NC4(C)CCC4)nnc23)c1 | 7.9 µM (≈ 3.1 µg/mL)
2 | CCCNC(=O)c1nnc2c(-c3ccc(OC)cc3OC)c(F)ccc2c1N | 1.4 µM (≈ 0.538 µg/mL)
3 | COc1ncccc1-c1cccc2c(N)c3c(nc12)CN(C1CCC1)C3=O | 9.4 µM (≈ 3.39 µg/mL)
